In the supplement of paper PMC7877785:
± gives the uncertainty stated by the source. The uncertainty is large for many entries.

Test: self-splicing fitness, log relative to wild type (ln ratio); higher = more splicing; Tetrahymena group I intron in knt gene, E. coli kanamycin selection, DiMSum; sequences stand for … in CUCUCU…GGAGGGAAAAGUUAUCAGGCAUGCACCUGGUAGCUAGUCUUUAAACCAAUAGAUUGCAUCGGUUUAAAAGGCAAGACCGUCAAAUUGCGGGAAAGGGGUCAACAGCCGUUCAGUACCAAGUCUCAGGGGAAACUUUGAGAUGGCCUUGCAAAGGGUAUGGUAAUAAGCUGACGGACAUGGUCCUAACCACGCAGCCAAGUCCUAAGUCAACAGAUCUUCUGUUGAUAUGGAUGCAGUUCACAGACUAAAUGUCGGUCGGGGAAGAUGUAUUCUUCUCAUAAGAUAUAGUCGGACCUCUCCUUAAUGGGAGCUAGCGGAUGAAGUGAUGCAACACUGGAGCCGCUGGGAACUAAUUUGUAUGCGAAAGUAUAUUGAUUAGUUUUGGAGUACUCGUGGUCG
Summary of the method: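 The eight P1ex-region nucleotides of an intron in the knt kanamycin-resistance gene on pET-22b(+) were all randomised and the library put into E. coli BL21(DE3). Six replicate transformations were grown overnight at 37°C or 30°C on LB agar with or without 25 μg/mL kanamycin, together with 100 μg/mL carbenicillin, 50 μM IPTG and 0.2% rhamnose. Colonies were pooled and amplicon-sequenced on an Illumina HiSeq 2500. Fitness from DiMSum is the error-weighted combination of wild-type-normalised replicate fold changes, kanamycin over none.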

Sequence	self-splicing fitness (ln) (30 °C)	self-splicing fitness (ln) (37 °C)
UCGUAGCAAUAUUACGCUUA	-3.72 ± 1	–
GGUAAGCAAUAUUACGCACU	-3.21 ± 1.1	–
UUCAAGCAAUAUUACGCUCC	-1.54 ± 0.16	-1.86 ± 0.24
CUUUAGCAAUAUUACGAAAC	-4.5 ± 0.59	–
ACUAAGCAAUAUUACGCCGA	-1.86 ± 0.18	-0.197 ± 0.16
CGUGAGCAAUAUUACGCGAG	–	-2.67 ± 1.1
ACGUAGCAAUAUUACGCGUA	-2.22 ± 0.17	-1.74 ± 0.16
AGUGAGCAAUAUUACGCUCA	-3.31 ± 0.74	–
GCGGAGCAAUAUUACGUCUA	-1.15 ± 0.76	-0.234 ± 1.4
AGUUAGCAAUAUUACGGAAC	-3.92 ± 0.6	–
UCGUAGCAAUAUUACGAGCC	-2.44 ± 1.1	-0.681 ± 1.4
CUAGAGCAAUAUUACGGGCA	-4.55 ± 0.72	–
CUUGAGCAAUAUUACGAUCA	-3.28 ± 0.75	–
CGUUAGCAAUAUUACGGCAC	-3.81 ± 1	-1.36 ± 0.84
UAUGAGCAAUAUUACGACGC	-3.13 ± 1	–
GGAGAGCAAUAUUACGGCAG	–	-3.43 ± 0.6
GACGAGCAAUAUUACGCUGC	-3.57 ± 1	–
GAGGAGCAAUAUUACGUUGC	-4.07 ± 0.53	-2.11 ± 0.64
GGUAAGCAAUAUUACGCAGA	-2.89 ± 0.62	–
AUGGAGCAAUAUUACGCAGA	–	-0.693 ± 0.82
UGGGAGCAAUAUUACGAGAA	–	-1.8 ± 0.81
GUCUAGCAAUAUUACGGGCC	–	-2.61 ± 0.77
GGCUAGCAAUAUUACGAGUC	-3.39 ± 0.61	–
AUAGAGCAAUAUUACGUUAU	-0.975 ± 0.089	-0.177 ± 0.11

Sequence	self-splicing fitness (ln) (30 °C)	self-splicing fitness (ln) (37 °C)
UGAGAGCAAUAUUACGUGCU	–	-1.61 ± 0.84
AGGAAGCAAUAUUACGCUAG	–	-1.23 ± 0.55
UCUGAGCAAUAUUACGGCAU	–	-2.93 ± 0.61
CGUUAGCAAUAUUACGCAUA	-4.08 ± 0.72	–
GUUUAGCAAUAUUACGCUGC	-2.83 ± 0.76	-1.63 ± 0.7
AAGCAGCAAUAUUACGCCUC	-3.83 ± 1	–
CUUUAGCAAUAUUACGGCCC	–	-1 ± 0.92
UGCAAGCAAUAUUACGAUGC	–	-2.83 ± 0.54
UUAGAGCAAUAUUACGCGAC	–	-2.76 ± 0.61
UUUGAGCAAUAUUACGAUAU	-4.12 ± 0.59	–
AGGGAGCAAUAUUACGAUGC	-5.54 ± 1	–
CCUAAGCAAUAUUACGGAAA	-3.81 ± 0.53	–
CUUGAGCAAUAUUACGAUCU	-4 ± 1	–
GUGCAGCAAUAUUACGAAGG	-2.59 ± 0.19	-1.53 ± 0.23
UCGCAGCAAUAUUACGACAC	-1.67 ± 0.26	-2.78 ± 0.41
UAUGAGCAAUAUUACGCGGC	-4.02 ± 0.29	-1.8 ± 0.25
AUGGAGCAAUAUUACGAGUG	-3.88 ± 1.1	-2.86 ± 0.53
AGAGAGCAAUAUUACGAAUA	-3.12 ± 0.61	–
CUCUAGCAAUAUUACGAUCU	-1.32 ± 1.4	–
CAGUAGCAAUAUUACGGCUG	-3.85 ± 0.47	-2.37 ± 0.34
UCCAAGCAAUAUUACGUACU	-3.94 ± 0.39	-2.54 ± 0.24
UUGUAGCAAUAUUACGAUAU	-3.78 ± 0.53	-1.08 ± 0.51
CUUAAGCAAUAUUACGCCCC	–	-1.26 ± 0.87
GGGGAGCAAUAUUACGUGCC	-4.09 ± 1	0.321 ± 1.2

Sequence	self-splicing fitness (ln) (30 °C)	self-splicing fitness (ln) (37 °C)
CUCAAGCAAUAUUACGAGCA	-3.51 ± 0.52	–
UCACAGCAAUAUUACGCUAU	-5.14 ± 0.51	–
ACAGAGCAAUAUUACGAACC	-2.66 ± 1.1	–
UCCGAGCAAUAUUACGAGCC	-2.84 ± 0.55	–
AUCGAGCAAUAUUACGGAGC	-2.84 ± 0.77	-2.79 ± 0.75
AUAGAGCAAUAUUACGGAUC	-2.96 ± 0.3	-2.14 ± 0.31
AGACAGCAAUAUUACGGCGU	-0.937 ± 0.057	-0.314 ± 0.065
GGGAAGCAAUAUUACGCGGC	–	-1.2 ± 0.66
UGGGAGCAAUAUUACGGAAG	-3.86 ± 0.72	-2.32 ± 0.65
AAGCAGCAAUAUUACGCUGU	-5.57 ± 0.71	–
UGUAAGCAAUAUUACGGUCC	-2.16 ± 0.14	-1.29 ± 0.14
UAAGAGCAAUAUUACGUUCC	-4.63 ± 1	–
AUAAAGCAAUAUUACGAAGG	-2.1 ± 0.081	-1.41 ± 0.12
GCCGAGCAAUAUUACGGCUU	-4.87 ± 1	-2.08 ± 0.41
GUCUAGCAAUAUUACGCCUG	-3.76 ± 1	–
UAAAAGCAAUAUUACGCCGC	-3.68 ± 0.6	–
CAAGAGCAAUAUUACGCCUA	-3.75 ± 1	–
GAAAAGCAAUAUUACGGAGG	-2.71 ± 0.14	-1.73 ± 0.18
UGUGAGCAAUAUUACGAGAA	-1.93 ± 0.7	–
UUGGAGCAAUAUUACGAACG	-1.93 ± 1.2	–
GAGCAGCAAUAUUACGCCCU	–	-2.12 ± 0.55
CCGCAGCAAUAUUACGAUGA	–	-2.55 ± 0.63
CUAGAGCAAUAUUACGCCCU	–	-1.33 ± 0.82
GUGUAGCAAUAUUACGAUCA	-0.818 ± 0.13	-0.543 ± 0.14

Sequence	self-splicing fitness (ln) (30 °C)	self-splicing fitness (ln) (37 °C)
GUGUAGCAAUAUUACGCGCA	-0.244 ± 0.88	-0.33 ± 0.68
CUGCAGCAAUAUUACGAAUC	-4.09 ± 1	-0.833 ± 0.5
UUACAGCAAUAUUACGGCCC	–	-1.13 ± 0.83
CACGAGCAAUAUUACGCUCC	-3.44 ± 0.53	-1.98 ± 0.66
UUCUAGCAAUAUUACGCCGG	-1.42 ± 0.56	–
CUGGAGCAAUAUUACGCUGA	-3.75 ± 1	-2.42 ± 0.51
UGGCAGCAAUAUUACGCCAC	–	-1.69 ± 1.2
CGCGAGCAAUAUUACGAUCC	–	-1.51 ± 0.54
UUUGAGCAAUAUUACGCCGU	-1.32 ± 0.82	-1.88 ± 1.2
UCGGAGCAAUAUUACGCCCC	–	-0.595 ± 1.4
UUUUAGCAAUAUUACGCGUC	-2.37 ± 0.64	–
CUCCAGCAAUAUUACGCCGA	–	-2.42 ± 0.63
GGCUAGCAAUAUUACGGCCC	-3.95 ± 1	-2.4 ± 0.77
AGCUAGCAAUAUUACGUUUU	-2.36 ± 0.14	-2.18 ± 0.16
CUUGAGCAAUAUUACGCCAG	-1.32 ± 0.71	-1.3 ± 0.56
UUUGAGCAAUAUUACGAAGU	-4.58 ± 0.72	–
CGCGAGCAAUAUUACGUGGA	-2.79 ± 0.16	-3.01 ± 0.34
GUGUAGCAAUAUUACGGUAG	-3.17 ± 0.79	–
AGAGAGCAAUAUUACGGUAC	-2.29 ± 0.64	–
GUUGAGCAAUAUUACGCUUC	–	-1.33 ± 1.2
UCUAAGCAAUAUUACGUGCU	-4.04 ± 0.34	-2.37 ± 0.2
ACCCAGCAAUAUUACGCGCC	-0.907 ± 0.064	0.136 ± 0.094
UCGAAGCAAUAUUACGCCAC	-4.22 ± 0.74	–
CAUCAGCAAUAUUACGCGAU	-3.69 ± 0.23	-2.86 ± 0.32

Another view of part of the listing above.

| Sequence | self-splicing fitness (ln) (30 °C) | self-splicing fitness (ln) (37 °C) |
| --- | --- | --- |
| GGUAAGCAAUAUUACGCAGA | -2.89 ± 0.62 | – |
| AUGGAGCAAUAUUACGCAGA | – | -0.693 ± 0.82 |
| UGGGAGCAAUAUUACGAGAA | – | -1.8 ± 0.81 |
| GUCUAGCAAUAUUACGGGCC | – | -2.61 ± 0.77 |
| GGCUAGCAAUAUUACGAGUC | -3.39 ± 0.61 | – |
| AUAGAGCAAUAUUACGUUAU | -0.975 ± 0.089 | -0.177 ± 0.11 |
| UGAGAGCAAUAUUACGUGCU | – | -1.61 ± 0.84 |
| AGGAAGCAAUAUUACGCUAG | – | -1.23 ± 0.55 |
| UCUGAGCAAUAUUACGGCAU | – | -2.93 ± 0.61 |
| CGUUAGCAAUAUUACGCAUA | -4.08 ± 0.72 | – |
| GUUUAGCAAUAUUACGCUGC | -2.83 ± 0.76 | -1.63 ± 0.7 |
| AAGCAGCAAUAUUACGCCUC | -3.83 ± 1 | – |
| CUUUAGCAAUAUUACGGCCC | – | -1 ± 0.92 |
| UGCAAGCAAUAUUACGAUGC | – | -2.83 ± 0.54 |
| UUAGAGCAAUAUUACGCGAC | – | -2.76 ± 0.61 |
| UUUGAGCAAUAUUACGAUAU | -4.12 ± 0.59 | – |
| AGGGAGCAAUAUUACGAUGC | -5.54 ± 1 | – |
| CCUAAGCAAUAUUACGGAAA | -3.81 ± 0.53 | – |
| CUUGAGCAAUAUUACGAUCU | -4 ± 1 | – |
| GUGCAGCAAUAUUACGAAGG | -2.59 ± 0.19 | -1.53 ± 0.23 |
| UCGCAGCAAUAUUACGACAC | -1.67 ± 0.26 | -2.78 ± 0.41 |
| UAUGAGCAAUAUUACGCGGC | -4.02 ± 0.29 | -1.8 ± 0.25 |
| AUGGAGCAAUAUUACGAGUG | -3.88 ± 1.1 | -2.86 ± 0.53 |
| AGAGAGCAAUAUUACGAAUA | -3.12 ± 0.61 | – |
| CUCUAGCAAUAUUACGAUCU | -1.32 ± 1.4 | – |
| CAGUAGCAAUAUUACGGCUG | -3.85 ± 0.47 | -2.37 ± 0.34 |
| UCCAAGCAAUAUUACGUACU | -3.94 ± 0.39 | -2.54 ± 0.24 |
| UUGUAGCAAUAUUACGAUAU | -3.78 ± 0.53 | -1.08 ± 0.51 |
| CUUAAGCAAUAUUACGCCCC | – | -1.26 ± 0.87 |
| GGGGAGCAAUAUUACGUGCC | -4.09 ± 1 | 0.321 ± 1.2 |
| CUCAAGCAAUAUUACGAGCA | -3.51 ± 0.52 | – |
| UCACAGCAAUAUUACGCUAU | -5.14 ± 0.51 | – |

Continuation:

Sequence	self-splicing fitness (ln) (30 °C)	self-splicing fitness (ln) (37 °C)
GUGGAGCAAUAUUACGCGCG	-1.79 ± 0.25	-2.11 ± 0.31
AGGCAGCAAUAUUACGAAAC	-3.58 ± 0.22	-1.8 ± 0.19
UCCGAGCAAUAUUACGCCGU	–	-3.97 ± 0.52
UCAGAGCAAUAUUACGAGGC	–	-2.48 ± 1.1
CGAGAGCAAUAUUACGCACU	-2.06 ± 0.2	-1.89 ± 0.23
UACGAGCAAUAUUACGAAGA	–	-2.93 ± 0.53
GGGAAGCAAUAUUACGUCCU	-3.88 ± 1.1	0.254 ± 0.87
CGAUAGCAAUAUUACGUAAG	-0.163 ± 0.066	0.259 ± 0.082
UGGCAGCAAUAUUACGCUUC	–	-2.39 ± 1.1
AGCAAGCAAUAUUACGCGCU	-4.19 ± 0.52	–
GCAGAGCAAUAUUACGCAUC	–	-3.13 ± 0.6
AUCCAGCAAUAUUACGGUCU	-0.68 ± 0.053	-0.109 ± 0.074
GGUGAGCAAUAUUACGGGGA	-4.4 ± 1	–
CUCUAGCAAUAUUACGAAUC	-5.3 ± 1	–
GUUGAGCAAUAUUACGCUCC	–	-0.234 ± 1.4
AGUGAGCAAUAUUACGGUAC	–	-3.3 ± 0.52
AAUAAGCAAUAUUACGAGGC	-3.35 ± 0.73	–
CUGAAGCAAUAUUACGCUCC	–	-1.33 ± 0.87
UUGUAGCAAUAUUACGAAAC	-3.6 ± 1	–
GGGCAGCAAUAUUACGAGCC	-4.76 ± 1	–
GAUGAGCAAUAUUACGGGCC	-3.45 ± 0.52	-2.82 ± 0.62
UUGUAGCAAUAUUACGUAAC	-3 ± 0.55	–
ACUCAGCAAUAUUACGCCAC	–	-3.13 ± 0.6
CUCUAGCAAUAUUACGAGUA	-3.39 ± 0.65	–
